Test results taken from patent US20100222384A1 (priority 2009, published 2010).
pEC50: −log10 of the molar value. Some of these results come from one statement about several compounds together. For at least one compound, name, drawing or mass did not settle the structure.

Tested on: Junin virus Candid #1 strain
Format: cell-based
Details: read-out: EC50, Junin virus inhibition

Row | SMILES | pEC50
1 | CCCOCCCCCCN1C[C@H](O)[C@@H](O)[C@H](O)[C@H]1CO [N7-O-DNJ, N-(7-Oxadecyl)deoxynojirimycin] | < 3.30
2 | COCCCCCCCCCN1C[C@H](O)[C@@H](O)[C@H](O)[C@H]1CO [N9-DNJ, N-(9-Methoxynonyl)deoxynojirimycin] | < 3.30
